Values from PubChem BioAssay AID1259424 (University of Nebraska Medical Center, 2018).
The whole screen tested about 14,000 reagents; this is a part drawn at random. 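Higher correlation or smaller distance means closer resemblance to KSR1 loss; control wells, including KSR1 knockdowns, recur on many plates.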 Not all columns of the deposit are shown. The record does not give: the time to read-out.

Assay: 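Seek colon cancer survival genes behaving like KSR1, using a six-gene signature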 (primary screen)
Cell system: human HCT116 colon cancer cells
Knock-down reagent: siRNA pool against human genes, 50 nM
Read-out: 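Six signature mRNAs by branched-DNA multiplex assay, scaled to two housekeeping genes and non-targeting median, log2; matched to mean KSR1 knockdown profile by Pearson correlation and euclidean distance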
Scale: mean correlation with KSR1 profile: higher = expression change more like KSR1 knockdown

SMAD2 (SMAD family member 2) — mean correlation with KSR1 profile: 0.734
B4GALT6 (beta-1,4-galactosyltransferase 6) — mean correlation with KSR1 profile: 0.0285
FCAMR (Fc alpha and mu receptor) — mean correlation with KSR1 profile: 0.779
USP29 (ubiquitin specific peptidase 29) — mean correlation with KSR1 profile: -0.635
MOS (MOS proto-oncogene, serine/threonine kinase) — mean correlation with KSR1 profile: -0.138
FYN (FYN proto-oncogene, Src family tyrosine kinase) — mean correlation with KSR1 profile: 0.211
HOOK3 (hook microtubule tethering protein 3) — mean correlation with KSR1 profile: 0.79
TJP3 (tight junction protein 3) — mean correlation with KSR1 profile: 0.413
AXIN2 (axin 2) — mean correlation with KSR1 profile: 0.0849
GPC4 (glypican 4) — mean correlation with KSR1 profile: -0.471
CDKAL1 (CDKAL1 threonylcarbamoyladenosine tRNA methylthiotransferase) — mean correlation with KSR1 profile: -0.931
P2RY8 (P2Y receptor family member 8) — mean correlation with KSR1 profile: 0.755
